Consider 73 targets from the supplement of paper PMC11006884.

The chains behind the UniProt entries cited, without tags or fusion partners. Where a name states a change or a piece, a line headed by the entry shows the natural chain unless it says otherwise.
UniProt P46013: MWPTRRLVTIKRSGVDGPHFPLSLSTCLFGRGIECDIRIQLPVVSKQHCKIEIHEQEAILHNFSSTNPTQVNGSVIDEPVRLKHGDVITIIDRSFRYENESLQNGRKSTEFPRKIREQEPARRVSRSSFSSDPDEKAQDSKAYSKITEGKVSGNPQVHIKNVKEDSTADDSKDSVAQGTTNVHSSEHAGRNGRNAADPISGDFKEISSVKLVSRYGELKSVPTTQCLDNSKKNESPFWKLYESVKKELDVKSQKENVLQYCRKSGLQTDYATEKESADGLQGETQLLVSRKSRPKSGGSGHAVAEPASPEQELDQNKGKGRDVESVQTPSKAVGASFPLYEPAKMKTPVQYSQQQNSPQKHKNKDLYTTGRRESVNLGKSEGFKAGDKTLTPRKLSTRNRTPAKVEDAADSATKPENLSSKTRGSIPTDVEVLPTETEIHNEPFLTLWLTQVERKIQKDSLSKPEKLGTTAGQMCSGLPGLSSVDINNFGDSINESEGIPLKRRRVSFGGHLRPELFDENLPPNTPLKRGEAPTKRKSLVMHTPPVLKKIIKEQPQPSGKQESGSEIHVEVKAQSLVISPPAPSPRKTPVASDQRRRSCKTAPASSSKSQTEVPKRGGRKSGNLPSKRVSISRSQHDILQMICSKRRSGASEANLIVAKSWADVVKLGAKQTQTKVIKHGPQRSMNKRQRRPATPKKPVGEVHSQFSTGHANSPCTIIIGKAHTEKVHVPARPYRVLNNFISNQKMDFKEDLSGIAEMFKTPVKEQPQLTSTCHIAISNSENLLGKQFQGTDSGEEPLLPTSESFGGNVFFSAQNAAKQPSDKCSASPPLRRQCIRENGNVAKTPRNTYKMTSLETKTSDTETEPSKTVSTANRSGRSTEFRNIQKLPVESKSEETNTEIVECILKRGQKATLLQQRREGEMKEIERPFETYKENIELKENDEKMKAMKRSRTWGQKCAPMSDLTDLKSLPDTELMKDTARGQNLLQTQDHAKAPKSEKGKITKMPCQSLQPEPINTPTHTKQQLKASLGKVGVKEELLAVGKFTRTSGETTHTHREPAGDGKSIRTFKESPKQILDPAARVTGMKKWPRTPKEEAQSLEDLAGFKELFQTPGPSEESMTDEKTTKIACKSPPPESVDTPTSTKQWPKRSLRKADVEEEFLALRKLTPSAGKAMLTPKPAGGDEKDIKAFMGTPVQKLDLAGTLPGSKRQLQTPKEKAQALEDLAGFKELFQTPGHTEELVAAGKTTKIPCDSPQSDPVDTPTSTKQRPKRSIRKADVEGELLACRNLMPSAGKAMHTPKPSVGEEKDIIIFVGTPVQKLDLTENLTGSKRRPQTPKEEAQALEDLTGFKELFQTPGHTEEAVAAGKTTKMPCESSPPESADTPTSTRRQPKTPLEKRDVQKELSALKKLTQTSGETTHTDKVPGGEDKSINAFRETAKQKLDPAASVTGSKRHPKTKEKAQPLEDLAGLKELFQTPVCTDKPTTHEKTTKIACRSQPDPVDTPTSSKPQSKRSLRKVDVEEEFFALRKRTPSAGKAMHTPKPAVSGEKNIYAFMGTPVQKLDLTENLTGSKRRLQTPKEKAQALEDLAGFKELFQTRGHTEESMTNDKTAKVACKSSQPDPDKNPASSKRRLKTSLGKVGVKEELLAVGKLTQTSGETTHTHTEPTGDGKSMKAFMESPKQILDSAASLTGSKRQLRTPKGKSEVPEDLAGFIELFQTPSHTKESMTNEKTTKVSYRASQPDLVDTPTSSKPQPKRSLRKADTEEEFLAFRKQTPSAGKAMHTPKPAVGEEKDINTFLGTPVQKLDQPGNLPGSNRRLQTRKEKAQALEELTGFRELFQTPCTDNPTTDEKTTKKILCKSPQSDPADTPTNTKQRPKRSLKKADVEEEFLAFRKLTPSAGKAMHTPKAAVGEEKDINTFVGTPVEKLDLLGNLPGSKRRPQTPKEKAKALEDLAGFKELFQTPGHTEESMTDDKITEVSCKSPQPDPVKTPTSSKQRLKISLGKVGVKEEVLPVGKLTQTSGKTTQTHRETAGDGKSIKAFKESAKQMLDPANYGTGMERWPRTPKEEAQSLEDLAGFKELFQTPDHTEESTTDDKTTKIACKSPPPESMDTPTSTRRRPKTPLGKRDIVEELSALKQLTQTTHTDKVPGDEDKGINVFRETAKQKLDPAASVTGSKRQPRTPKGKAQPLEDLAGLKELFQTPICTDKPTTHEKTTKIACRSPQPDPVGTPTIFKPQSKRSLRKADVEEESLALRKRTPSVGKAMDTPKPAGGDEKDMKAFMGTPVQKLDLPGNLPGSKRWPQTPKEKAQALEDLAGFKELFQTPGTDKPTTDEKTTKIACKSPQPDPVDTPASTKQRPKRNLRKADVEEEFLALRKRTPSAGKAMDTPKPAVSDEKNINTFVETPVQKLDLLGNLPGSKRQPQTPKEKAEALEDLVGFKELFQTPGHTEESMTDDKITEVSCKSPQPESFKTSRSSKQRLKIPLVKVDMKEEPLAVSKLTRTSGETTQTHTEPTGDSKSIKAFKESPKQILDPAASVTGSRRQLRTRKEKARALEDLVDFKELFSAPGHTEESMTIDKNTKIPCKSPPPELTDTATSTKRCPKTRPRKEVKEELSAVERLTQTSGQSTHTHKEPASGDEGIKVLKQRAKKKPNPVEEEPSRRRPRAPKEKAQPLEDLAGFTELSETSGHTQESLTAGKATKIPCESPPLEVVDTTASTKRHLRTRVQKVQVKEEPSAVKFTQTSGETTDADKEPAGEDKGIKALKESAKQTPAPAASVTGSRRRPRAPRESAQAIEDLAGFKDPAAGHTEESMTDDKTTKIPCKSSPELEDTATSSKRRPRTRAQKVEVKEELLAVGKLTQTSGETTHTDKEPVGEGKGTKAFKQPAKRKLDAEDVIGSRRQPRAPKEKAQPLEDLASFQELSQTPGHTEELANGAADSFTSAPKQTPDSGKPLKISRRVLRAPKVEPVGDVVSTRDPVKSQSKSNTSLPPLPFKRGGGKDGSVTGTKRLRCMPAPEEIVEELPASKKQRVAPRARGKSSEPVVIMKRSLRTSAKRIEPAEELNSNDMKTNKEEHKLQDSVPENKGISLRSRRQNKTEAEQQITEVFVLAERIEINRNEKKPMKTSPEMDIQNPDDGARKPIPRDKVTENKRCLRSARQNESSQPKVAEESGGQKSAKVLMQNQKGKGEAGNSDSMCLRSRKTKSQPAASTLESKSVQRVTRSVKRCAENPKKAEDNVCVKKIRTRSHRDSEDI
UniProt P50991: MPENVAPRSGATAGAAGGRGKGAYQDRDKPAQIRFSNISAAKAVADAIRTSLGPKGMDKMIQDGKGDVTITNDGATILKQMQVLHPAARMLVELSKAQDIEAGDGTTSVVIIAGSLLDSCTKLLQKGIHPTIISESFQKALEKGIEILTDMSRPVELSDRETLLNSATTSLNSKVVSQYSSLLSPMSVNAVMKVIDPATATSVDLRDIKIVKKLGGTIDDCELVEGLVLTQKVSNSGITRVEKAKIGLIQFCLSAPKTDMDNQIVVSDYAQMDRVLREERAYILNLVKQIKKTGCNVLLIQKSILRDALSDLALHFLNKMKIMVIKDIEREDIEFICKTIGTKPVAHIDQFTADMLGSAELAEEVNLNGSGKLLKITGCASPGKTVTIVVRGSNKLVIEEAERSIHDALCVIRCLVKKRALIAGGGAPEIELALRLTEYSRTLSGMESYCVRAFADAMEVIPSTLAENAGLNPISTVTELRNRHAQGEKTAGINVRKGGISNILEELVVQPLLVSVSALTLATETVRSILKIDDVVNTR
UniProt P49790, whole entry, looked up: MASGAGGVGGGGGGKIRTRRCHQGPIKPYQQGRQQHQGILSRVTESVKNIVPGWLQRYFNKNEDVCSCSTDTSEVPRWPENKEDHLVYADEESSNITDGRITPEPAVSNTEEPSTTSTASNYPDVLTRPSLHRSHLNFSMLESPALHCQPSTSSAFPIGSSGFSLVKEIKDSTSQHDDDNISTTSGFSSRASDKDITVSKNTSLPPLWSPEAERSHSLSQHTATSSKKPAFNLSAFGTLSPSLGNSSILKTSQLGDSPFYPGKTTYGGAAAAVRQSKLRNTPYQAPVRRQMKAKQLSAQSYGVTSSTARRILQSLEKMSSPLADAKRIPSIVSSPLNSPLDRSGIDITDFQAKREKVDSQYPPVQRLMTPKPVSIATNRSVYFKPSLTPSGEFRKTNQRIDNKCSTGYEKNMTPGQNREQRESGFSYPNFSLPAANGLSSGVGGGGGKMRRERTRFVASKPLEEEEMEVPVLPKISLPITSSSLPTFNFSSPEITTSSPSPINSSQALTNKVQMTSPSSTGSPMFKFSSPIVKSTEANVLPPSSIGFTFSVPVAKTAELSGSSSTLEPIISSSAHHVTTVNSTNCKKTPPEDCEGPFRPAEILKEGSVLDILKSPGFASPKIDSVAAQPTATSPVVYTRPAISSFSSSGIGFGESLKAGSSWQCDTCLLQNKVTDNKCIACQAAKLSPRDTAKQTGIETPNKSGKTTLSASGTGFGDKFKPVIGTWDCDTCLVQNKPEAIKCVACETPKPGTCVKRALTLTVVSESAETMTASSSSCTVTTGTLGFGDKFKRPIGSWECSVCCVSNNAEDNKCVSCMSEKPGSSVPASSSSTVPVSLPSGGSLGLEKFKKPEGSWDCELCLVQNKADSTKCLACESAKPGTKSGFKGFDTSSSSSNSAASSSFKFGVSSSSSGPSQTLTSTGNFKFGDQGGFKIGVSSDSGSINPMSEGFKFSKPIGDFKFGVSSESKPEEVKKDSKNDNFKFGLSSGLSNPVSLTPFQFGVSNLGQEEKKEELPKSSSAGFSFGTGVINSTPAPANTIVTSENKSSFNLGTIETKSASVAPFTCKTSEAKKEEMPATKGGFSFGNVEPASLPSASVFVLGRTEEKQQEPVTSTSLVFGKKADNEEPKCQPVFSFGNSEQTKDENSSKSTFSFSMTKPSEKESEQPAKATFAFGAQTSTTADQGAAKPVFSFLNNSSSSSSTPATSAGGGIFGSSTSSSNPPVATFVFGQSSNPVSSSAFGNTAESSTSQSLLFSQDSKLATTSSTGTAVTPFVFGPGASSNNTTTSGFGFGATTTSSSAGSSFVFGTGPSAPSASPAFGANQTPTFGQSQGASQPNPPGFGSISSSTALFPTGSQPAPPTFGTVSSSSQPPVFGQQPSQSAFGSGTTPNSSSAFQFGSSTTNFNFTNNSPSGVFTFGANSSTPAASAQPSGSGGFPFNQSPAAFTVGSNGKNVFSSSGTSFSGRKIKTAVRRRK
UniProt P46379: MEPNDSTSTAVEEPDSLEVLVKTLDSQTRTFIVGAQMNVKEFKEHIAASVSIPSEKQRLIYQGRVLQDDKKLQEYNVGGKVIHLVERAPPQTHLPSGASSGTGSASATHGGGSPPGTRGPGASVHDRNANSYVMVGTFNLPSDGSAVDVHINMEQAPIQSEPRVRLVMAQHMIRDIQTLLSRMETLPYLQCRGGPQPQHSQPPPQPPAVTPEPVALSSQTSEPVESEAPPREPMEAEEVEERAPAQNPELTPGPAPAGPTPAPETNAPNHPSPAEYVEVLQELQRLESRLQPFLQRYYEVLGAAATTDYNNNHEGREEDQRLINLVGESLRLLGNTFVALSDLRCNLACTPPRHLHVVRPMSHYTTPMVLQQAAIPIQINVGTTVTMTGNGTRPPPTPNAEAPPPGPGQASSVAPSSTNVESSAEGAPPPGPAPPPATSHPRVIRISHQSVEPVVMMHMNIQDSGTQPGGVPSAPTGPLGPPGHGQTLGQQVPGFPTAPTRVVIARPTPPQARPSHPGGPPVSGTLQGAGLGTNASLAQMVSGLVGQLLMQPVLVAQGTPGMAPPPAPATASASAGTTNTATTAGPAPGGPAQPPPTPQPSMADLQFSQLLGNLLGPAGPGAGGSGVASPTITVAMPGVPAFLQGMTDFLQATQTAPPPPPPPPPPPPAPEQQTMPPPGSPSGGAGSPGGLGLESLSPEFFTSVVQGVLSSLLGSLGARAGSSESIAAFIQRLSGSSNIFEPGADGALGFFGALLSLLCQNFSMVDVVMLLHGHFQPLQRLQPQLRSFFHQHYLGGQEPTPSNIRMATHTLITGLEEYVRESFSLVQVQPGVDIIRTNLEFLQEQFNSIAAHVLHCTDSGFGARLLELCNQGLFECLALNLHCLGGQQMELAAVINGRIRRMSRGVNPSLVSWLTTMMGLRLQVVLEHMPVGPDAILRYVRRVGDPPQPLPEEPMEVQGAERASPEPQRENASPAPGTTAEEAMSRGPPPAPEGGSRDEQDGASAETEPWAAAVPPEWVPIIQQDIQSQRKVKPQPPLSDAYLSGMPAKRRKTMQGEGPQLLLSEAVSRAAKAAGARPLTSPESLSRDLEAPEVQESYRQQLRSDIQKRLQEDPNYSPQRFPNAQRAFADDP
UniProt P51452: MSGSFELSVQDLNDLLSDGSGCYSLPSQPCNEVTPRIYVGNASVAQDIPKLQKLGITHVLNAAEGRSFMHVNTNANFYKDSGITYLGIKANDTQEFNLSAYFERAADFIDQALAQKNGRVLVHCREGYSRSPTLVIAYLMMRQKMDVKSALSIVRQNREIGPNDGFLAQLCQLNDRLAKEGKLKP

This is a selection; strong and weak results do not stand in their true shares.

Compound in this experiment: COC(=O)C#Cc1ccccc1 [methyl 3-phenylpropiolate]
The experiment can be described thus: log2 ratio of iodoacetamide-alkyne labeling of the cysteine site, DMSO over compound (competition); higher = stronger covalent engagement of the cysteine by the compound, active = 1 or more. The conditions noted are these: 500 µM; treatment time 1 h; system: HEK293T cell lysate. In short, it runs like this:
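HEK293T lysate (2 mg/mL) was incubated with electrophile (500 µM) or vehicle for 1 h at ambient temperature and then with iodoacetamide alkyne for 1 h. Labelled proteins were clicked to sCIP-TMT reagents, pooled, digested, enriched on streptavidin and measured by Orbitrap Eclipse LC-MS/MS with FAIMS, with FragPipe quantification. The per-cysteine log2 competition ratio is mean control-channel reporter intensity over mean compound-channel reporter intensity. Across three replicates with duplicate channels, cysteines quantified in only one replicate were excluded.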

Take LIMS1 C303 (UniProt P48059): the “log2 ratio of iodoacetamide-alkyne labeling” value (shortened to “log2 ratio”) is inactive: 0.548.
As for IDH2 C418 (UniProt P48735), the “log2 ratio” value was inactive: 0.306.
The same measure for DNM2 C607 (UniProt P50570): inactive: 0.37.
In the case of NDUFV1 C206 (UniProt P49821), the “log2 ratio” value is inactive: 0.223.
In the case of FASN C1127 (UniProt P49327), the “log2 ratio” value is inactive: 0.394.
NAMPT C397 (UniProt P43490): the “log2 ratio” value is inactive: 0.281.
For MKI67 C715 (UniProt P46013), the “log2 ratio” value is inactive: 0.667.
The same measure for NT5C2 C181 (UniProt P49902): inactive: 0.0722; for RPL27A C70 (UniProt P46776): inactive: 0.176.
For PAPOLA C293 (UniProt P51003), the “log2 ratio” value was inactive: 0.454.
As for RANBP2 C1335 (UniProt P49792), the “log2 ratio” value is inactive: 0.226.
Regarding MKI67 C1251 (UniProt P46013), the “log2 ratio” value is inactive: 0.262.
Consider CCT4 C221 (UniProt P50991), for which the “log2 ratio” value was inactive: 0.272.
The same measure for RANBP1 C99 (UniProt P43487): inactive: 0.0956.
For the target UTRN C1059 (UniProt P46939), the “log2 ratio” value is inactive: -0.137.
For the target GDI2 C202 (UniProt P50395), the “log2 ratio” value was inactive: -0.0158.
RANGAP1 C82 (UniProt P46060): the “log2 ratio” value is inactive: 0.944.
As for GMPS C456 (UniProt P49915), the “log2 ratio” value is inactive: -0.041.
The same measure for NUP153 C1129 (UniProt P49790): inactive: 0.282; for UniProt P46379_C856: inactive: 0.0321.
With SRP9 C39 (UniProt P49458), the “log2 ratio” value was inactive: 0.0651.
Turning to CARS C27 (UniProt P49589), the “log2 ratio” value is inactive: 0.454.
Turning to FXR1 C157 (UniProt P51114), the “log2 ratio” value was inactive: 0.771.
In the case of SRP9 C48 (UniProt P49458), the “log2 ratio” value is inactive: -0.31.
Consider NASP C84 (UniProt P49321), for which the “log2 ratio” value is inactive: 0.0785.
On to MSH2 C199 (UniProt P43246), for which the “log2 ratio” value was inactive: 0.134.
For GMPS C489 (UniProt P49915), the “log2 ratio” value was inactive: 0.0878.
On to CTCF C268 (UniProt P49711), for which the “log2 ratio” value was inactive: -0.0241.
As to RPL34 C49 (UniProt P49207), the “log2 ratio” value was inactive: 0.379.
Take MCM2 C522 (UniProt P49736): the “log2 ratio” value was inactive: -0.16.
As to ST13 C209 (UniProt P50502), the “log2 ratio” value is inactive: 0.272.
For the target PHKA1 C1082 (UniProt P46020), the “log2 ratio” value is inactive: 0.236.
With EIF2B2 C310 (UniProt P49770), the “log2 ratio” value was inactive: 0.149.
As to QARS C556 (UniProt P47897), the “log2 ratio” value was inactive: -0.102.
With RPS5 C66 (UniProt P46782), the “log2 ratio” value is active: 2.5.
Regarding NSF C11 (UniProt P46459), the “log2 ratio” value was inactive: 0.206.
As for QARS C657 (UniProt P47897), the figure is inactive: 0.375; as for FASN C2359 (UniProt P49327), inactive: 0.113; as for HCFC1 C1886 (UniProt P51610), inactive: 0.415.
For the target RPL34 C46 (UniProt P49207), the “log2 ratio” value is inactive: 0.949.
As for UniProt P49841_C199, the “log2 ratio” value is inactive: 0.0422.
On to RPL14 C42 (UniProt P50914), for which the “log2 ratio” value is active: 1.82.
As to IDH3G C81 (UniProt P51553), the “log2 ratio” value was inactive: 0.412.
Regarding LRBA C1563 (UniProt P50851), the “log2 ratio” value was inactive: 0.628.
In the case of MECP2 C413 (UniProt P51608), the “log2 ratio” value was inactive: 0.406.
For MARCKSL1 C134 (UniProt P49006), the “log2 ratio” value is inactive: 0.0937.
Consider CCT8 C36 (UniProt P50990), for which the “log2 ratio” value was inactive: 0.573.
The same measure for RPL5 C100 (UniProt P46777): inactive: 0.0186; for PTDSS1 C419 (UniProt P48651): inactive: 0.275; for IDH3A C351 (UniProt P50213): inactive: -0.35.
In the case of RBM25 C83 (UniProt P49756), the “log2 ratio” value was inactive: 0.149.
For the target IDH3A C331 (UniProt P50213), the “log2 ratio” value is inactive: 0.257.
As for NUP153 C404 (UniProt P49790), the figure is inactive: 0.515.
Turning to UniProt P49591_C117, the “log2 ratio” value was inactive: 0.0247.
As for RANBP2 C3071 (UniProt P49792), the figure is inactive: 0.0882.
As for RPL21 C56 (UniProt P46778), the “log2 ratio” value was inactive: 0.699.
For the target CCT5 C302 (UniProt P48643), the “log2 ratio” value was inactive: 0.0322.
NUP153 C148 (UniProt P49790): the “log2 ratio” value is inactive: 0.324.
Take VDAC2 C76 (UniProt P45880): the “log2 ratio” value is inactive: 0.138.
As for DUSP3 C171 (UniProt P51452), the “log2 ratio” value is inactive: 0.148.
Consider AARS C773 (UniProt P49588), for which the “log2 ratio” value was inactive: 0.138.
As for METAP2 C121 (UniProt P50579), the figure is inactive: 0.643.
In the case of CCT4 C295 (UniProt P50991), the “log2 ratio” value is inactive: 0.173.
Consider NOP2 C463 (UniProt P46087), for which the “log2 ratio” value was inactive: 0.29.
Regarding FNTB C11 (UniProt P49356), the “log2 ratio” value was inactive: 0.277.
For FXR1 C77 (UniProt P51114), the “log2 ratio” value is inactive: 0.0364.
For MKI67 C3014 (UniProt P46013), the “log2 ratio” value was inactive: 0.246.
With UniProt P49591_C438, the “log2 ratio” value is inactive: 0.0645.
As to RANGAP1 C573 (UniProt P46060), the “log2 ratio” value was inactive: -0.012.
Regarding TAF6 C431 (UniProt P49848), the “log2 ratio” value was inactive: 0.218.
As for HCFC1 C1895 (UniProt P51610), the figure is active: 1.09; as for PLA2G4A C726 (UniProt P47712), inactive: 0.482.
For the target LRBA C1704 (UniProt P50851), the “log2 ratio” value is inactive: 0.262.
